# According to patent US12077555B2, “STAT degraders and uses thereof” (Kymera Therapeutics, Inc., priority 2019, dated 2024):
# The chains behind the UniProt entries cited, without tags or fusion partners.
# UniProt P40763, whole entry: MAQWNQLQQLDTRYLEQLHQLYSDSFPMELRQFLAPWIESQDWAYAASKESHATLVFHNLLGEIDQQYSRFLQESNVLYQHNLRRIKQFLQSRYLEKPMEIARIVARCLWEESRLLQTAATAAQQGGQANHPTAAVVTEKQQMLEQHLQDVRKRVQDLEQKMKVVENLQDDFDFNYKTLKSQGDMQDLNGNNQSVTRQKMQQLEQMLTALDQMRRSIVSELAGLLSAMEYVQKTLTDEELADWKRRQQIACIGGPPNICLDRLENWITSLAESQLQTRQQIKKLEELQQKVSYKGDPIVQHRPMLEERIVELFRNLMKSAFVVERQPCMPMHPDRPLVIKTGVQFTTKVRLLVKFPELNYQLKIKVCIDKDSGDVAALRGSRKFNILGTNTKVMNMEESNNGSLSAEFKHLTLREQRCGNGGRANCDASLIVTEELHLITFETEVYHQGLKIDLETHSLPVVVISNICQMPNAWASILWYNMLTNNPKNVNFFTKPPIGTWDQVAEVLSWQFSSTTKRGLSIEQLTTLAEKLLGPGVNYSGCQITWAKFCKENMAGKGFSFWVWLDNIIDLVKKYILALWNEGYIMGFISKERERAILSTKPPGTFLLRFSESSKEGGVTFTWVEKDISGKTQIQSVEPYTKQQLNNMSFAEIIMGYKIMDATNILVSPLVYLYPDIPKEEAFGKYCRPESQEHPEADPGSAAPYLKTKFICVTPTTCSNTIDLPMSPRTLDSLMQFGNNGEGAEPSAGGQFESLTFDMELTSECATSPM
# The structures given here were assigned with low confidence; some may be wrong.
# Target: STAT3 (Homo sapiens, UniProt P40763)
# Assay: Quantitation of STAT3 degradation in A549 cells by Western blot
# Type: cell-based
# Details: read-out: A549 DC50, 24 hours, tested up to 30 μM or 10 μM
# Experimental: Degradation of total cellular STAT3 protein in A549 was quantitatively measured using SDS-PAGE and Western blot analysis. A549 cells (5×10^5 cells/well, 2 mL) were seeded into 6-well plates and were incubated in the incubator under 5% CO2 overnight to reach ˜80% confluency. The next day, the culture medium was changed with 1 ml fresh media. Then, 1 mL of media containing 2× compound solution was added into the well to make the final concentration of 30 μM, 10 μM, 3 μM, 1 μM, 0.3 μM and 0 μM (DMSO). The media was thoroughly mixed and incubated for 24 hours at 37° C. under 5% CO2. Then, the culture media was removed from the assay plates and the cells were washed with ice-cold PBS twice. To prepare cell lysates, 200 ul pre-chilled RIPA lysis buffer (Boston BioProducts BP-115D) with protease/phosphatase inhibitor (Roche 05892791001/Roche 04906837001) was added directly into the well to lyse the cells for 20 minutes on ice. The cell lysates were then transferred to centrifuge tubes. Insoluble part of lysates was removed by centrifuging the lysates at 13000 rpm for 20 minutes. The supernatant was then collected and mixed with 5× loading buffer (Beyotime Bio P0015) to make the final samples for SDS-PAGE analysis. The samples were heated at 100° C. for 10 minutes and cool to room temperature before centrifuging at 13000 rpm for 20 minutes. To analyze the samples by SDS-PAGE, 10 ul samples were loaded onto SDS-PAGE gel (Novex, WG1403BOX) and the SDS-PAGE gel was run for 20 minutes at 80 V, then at 120 V for 1.5 hours. The SDS-PAGE gel was then transferred to nitrocellulose membrane using the wet-transfer method at 250 mA for 1.5 hours. The membrane was then blocked with LI-COR blocking buffer (LI-COR, 927-50000) for 1 hour and was probed with primary antibody (mouse anti-STAT3 (124H6) (CST #91395) 1:2000 or mouse anti-beta-Actin (8H10D10) (CST #3700) 1:10000) at 4° C. overnight. The membrane was then washed three times with TBST buffer and probed with secondary antibody (anti-mouse IgG (LI-COR, 926-68070), 1:5000) for 1 hour at room temperature. The membrane was then scanned on a LI-COR Odyssey instrument and was quantified using Image Studio Version 5.2. Concentration at 50% degradation (DC50) was calculated by fitting dose dependent degradation data using a sigmoidal equation using GraphPad Prism Version 8.0.
row,Compound,DC50 [µM]
1,C/C(=C\C(=O)N[C@H]1CCc2cccc3c2N(C1=O)[C@H](C(=O)N[C@@H](CCC(N)=O)[C@@H](C)OCc1ccc(CCCOCCOCCOCCOCCOCCOc2cc(-c4scnc4C)ccc2CNC(=O)[C@@H]2C[C@@H](O)CN2C(=O)[C@@H](NC(=O)C2(F)CC2)C(C)(C)C)cc1)C3)c1ccc(C(F)(F)P(=O)(OCOC(=O)C(C)(C)C)OCOC(=O)C(C)(C)C)cc1,> 30
2,C/C(=C\C(=O)N[C@H]1CCc2cccc3c2N(C1=O)[C@H](C(=O)N[C@@H](CCC(N)=O)[C@@H](C)OCc1ccc(CCCOCC(=O)N[C@H](C(=O)N2C[C@@H](O)C[C@H]2C(=O)NCc2ccc(-c4scnc4C)cc2)C(C)(C)C)cc1)C3)c1ccc(C(F)(F)P(=O)(OCOC(=O)C(C)(C)C)OCOC(=O)C(C)(C)C)cc1,> 30
